# Measurements from PubChem BioAssay AID328 (DTP/NCI, 2004).
# The list shows only some results of the screen, not a fair sample: it gathers tests that were run many times, whatever their T/C, doses with no T/C, and many T/C values between a quarter and a half above the control. Further doses and runs are listed elsewhere. T/C gives the treated animals as a percentage of the vehicle group. Some entries give survivors of the animals treated and no T/C: the source holds a T/C of zero for them, seemingly a mark for toxic or unscored doses. Some survivor counts are full or nearly so, which does not show that the dose was tolerated: survival well below the control is almost never listed, so the zero probably covers shortened survival too. Survivors were counted at the toxicity check, usually on the fifth day, unless a day is given; later deaths do not show. Schedule codes are those of the source, read here as Q, the interval in days (D) or hours (H), X, the number of doses. Some molecules as drawn cover several salts, stereoisomers or complexes of the source; a dose is that of the sample tested. Some entries were tested several times; the values are given in rising order. For survival time, this PubChem deposit counts one and a half times the control or more as active, and values a quarter to a half above the control carry no call in these data; other NCI protocols may use other cut-offs. Some schedules carry Z or #; the key to these is not given. Some T/C values carry the count of animals alive at the toxicity check (mostly the fifth day); where none is given, no animal had died by that day. Counts like (3×) count equal records among those shown.
# Tested on: BDF1 mice, P388 leukemia ip, median survival T/C
# Test: NCI In Vivo Anticancer Drug Screen. Data for tumor model P388 Leukemia (intraperitoneal) in B6D2F1 (BDF1) mice
# Settings: T/C endpoint: median survival time, higher T/C = longer survival
# How it was run: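 Compound-treated tumour-bearing mice were compared with vehicle-treated controls. Survival was recorded, and the value is the treated-group measurement divided by the control-group measurement (T/C).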
# [1] = dose: 0.06 mg/kg/injection, schedule: Q01DX010 (ip), vehicle: water
# [2] = dose: 0.5 mg/kg/injection, schedule: Q01DX010 (ip), vehicle: water
# [3] = dose: 1.0 mg/kg/injection, schedule: Q01DX001 (ip), vehicle: water
smiles,measurement,setting,value
CO[C@H](C(=O)[C@@H](O)[C@@H](C)O)[C@@H]1Cc2cc3cc(OC4CC(OC5CC(O)C(O)C(C)O5)C(O)C(C)O4)c(C)c(O)c3c(O)c2C(=O)[C@H]1OC1CC(OC2CC(OC3CC(C)(O)C(O)C(C)O3)C(O)C(C)O2)C(O)C(C)O1 (some centres not stated),T/C,[1],"100 (4×), 109, 110 (2×), 118 % of control"
same,survivor count,[1],5 of 6
same,T/C,"dose: 0.1 mg/kg/injection, schedule: Q01DX010 (ip), vehicle: water","107, 109 (2×), 114, 115, 120 % of control [5 of 6 alive]"
same,T/C,"dose: 0.12 mg/kg/injection, schedule: Q01DX010 (ip), vehicle: saline",138 and 142 % of control
same,T/C,"dose: 0.13 mg/kg/injection, schedule: Q01DX009 (ip), vehicle: saline",125 % of control
same,T/C,"dose: 0.13 mg/kg/injection, schedule: Q01DX010 (ip), vehicle: saline, evaluated on day 5",133 % of control
same,T/C,"dose: 0.13 mg/kg/injection, schedule: Q01DX010 (ip), vehicle: saline, evaluated on day 60",139 % of control
same,T/C,"dose: 0.13 mg/kg/injection, schedule: Q01DX010 (ip), vehicle: saline, run until all animals had died","109, 118, 122, 127 % of control"
same,T/C,"dose: 0.13 mg/kg/injection, schedule: Q01DX010 (ip), vehicle: water","95, 104, 109 (2×), 110 (2×), 118 (2×), 120 % of control"
same,T/C,"dose: 0.19 mg/kg/injection, schedule: Q01DX010 (ip), vehicle: saline",135 % of control
same,T/C,"dose: 0.2 mg/kg/injection, schedule: Q01DX009 (ip), vehicle: water",130 % of control [9 of 10 alive]
same,T/C,"dose: 0.2 mg/kg/injection, schedule: Q01DX010 (ip), vehicle: water","107, 109 (4×), 113, 115, 117, 118 (2×), 125, 127 % of control (2×)"
same,T/C,"dose: 0.2 mg/kg/injection, schedule: Q01DX015 (ip), vehicle: water",130 % of control
same,T/C,"dose: 0.25 mg/kg/injection, schedule: Q01DX010 (ip), vehicle: saline, evaluated on day 5",127 % of control
same,T/C,"dose: 0.25 mg/kg/injection, schedule: Q01DX010 (ip), vehicle: saline, evaluated on day 60","126, 142, 157 % of control"
same,T/C,"dose: 0.25 mg/kg/injection, schedule: Q01DX010 (ip), vehicle: saline, run until all animals had died","109, 113, 122, 127, 127 [6 of 7 alive], 131, 133, 136 % of control"
same,T/C,"dose: 0.25 mg/kg/injection, schedule: Q01DX010 (ip), vehicle: water","104 [5 of 6 alive], 109, 110 (2×), 112 [4 of 6 alive], 113, 118, 118 [5 of 6 alive], 120, 122, 125, 127 (3×), 130 (2×), 136 % of control"
same,T/C,"dose: 0.25 mg/kg/injection, schedule: Q#A X005 (ip), vehicle: saline",127 % of control
same,T/C,"dose: 0.3 mg/kg/injection, schedule: Q01DX010 (ip), vehicle: water","109 [5 of 6 alive], 113, 115 [5 of 6 alive], 118 (2×), 118 [5 of 6 alive], 121, 127 (3×), 130, 132, 136 % of control"
same,T/C,"dose: 0.3 mg/kg/injection, schedule: Q01DX015 (ip), vehicle: water",125 % of control [5 of 6 alive]
same,T/C,"dose: 0.32 mg/kg/injection, schedule: Q01DX005 (ip), vehicle: water",148 % of control
same,T/C,"dose: 0.35 mg/kg/injection, schedule: Q01DX009 (ip), vehicle: water",140 % of control
same,T/C,"dose: 0.38 mg/kg/injection, schedule: Q01DX010 (ip), vehicle: saline",135 % of control
same,T/C,"dose: 0.4 mg/kg/injection, schedule: Q01DX010 (ip), vehicle: water","103, 113 (2×), 118 [5 of 6 alive], 122 (2×), 127 (2×), 132, 136, 139, 140 [5 of 6 alive], 163 % of control"
same,T/C,"dose: 0.4 mg/kg/injection, schedule: Q01DX015 (ip), vehicle: water",135 % of control
same,T/C,"dose: 0.5 mg/kg/injection, schedule: Q01DX001 (ip), vehicle: water",125 % of control
same,T/C,"dose: 0.5 mg/kg/injection, schedule: Q01DX009 (ip), vehicle: clinical formulation",140 % of control
same,survivor count,"dose: 0.5 mg/kg/injection, schedule: Q01DX009 (ip), vehicle: water",6 of 10
same,T/C,"dose: 0.5 mg/kg/injection, schedule: Q01DX010 (ip), vehicle: saline, evaluated on day 5",146 % of control
same,T/C,"dose: 0.5 mg/kg/injection, schedule: Q01DX010 (ip), vehicle: saline, evaluated on day 60","147, 157, 180 % of control"
same,T/C,"dose: 0.5 mg/kg/injection, schedule: Q01DX010 (ip), vehicle: saline, run until all animals had died","131, 136, 140, 154 (4×), 168 % of control"
same,T/C,[2],"90 [5 of 6 alive], 95, 95 [5 of 6 alive], 100, 104, 113 (2×), 120, 122, 122 [5 of 6 alive] (2×), 126 [4 of 6 alive], 127 [4 of 6 alive], 130 [5 of 6 alive], 136, 140 (2×), 140 [5 of 6 alive], 143, 150 % of control"
same,survivor count,[2],"3 of 6, 4 of 6, 5 of 6, 6 of 6"
same,survivor count,"dose: 0.5 mg/kg/injection, schedule: Q01DX015 (ip), vehicle: water",4 of 6
same,T/C,"dose: 0.5 mg/kg/injection, schedule: Q#A X005 (ip), vehicle: saline",127 % of control
same,survivor count,"dose: 0.65 mg/kg/injection, schedule: Q01DX009 (ip), vehicle: water",4 of 10
same,T/C,"dose: 0.75 mg/kg/injection, schedule: Q01DX010 (ip), vehicle: saline",137 % of control
same,survivor count,"dose: 0.75 mg/kg/injection, schedule: Q01DX010 (ip), vehicle: water",4 of 6 and 5 of 6
same,survivor count,"dose: 0.8 mg/kg/injection, schedule: Q01DX009 (ip), vehicle: water",2 of 10 and 4 of 10
same,survivor count,"dose: 0.9 mg/kg/injection, schedule: Q01DX005 (ip), vehicle: water",7 of 8
same,T/C,[3],125 % of control [3 of 4 alive]
same,survivor count,[3],4 of 4
same,survivor count,"dose: 1.0 mg/kg/injection, schedule: Q01DX005 (ip), vehicle: saline",7 of 10
same,survivor count,"dose: 1.0 mg/kg/injection, schedule: Q01DX009 (ip), vehicle: saline",9 of 10
same,T/C,"dose: 1.0 mg/kg/injection, schedule: Q01DX010 (ip), vehicle: saline, evaluated on day 5",180 % of control
same,T/C,"dose: 1.0 mg/kg/injection, schedule: Q01DX010 (ip), vehicle: saline, evaluated on day 60","176, 182, 195 % of control"
same,survivor count,"dose: 1.0 mg/kg/injection, schedule: Q01DX010 (ip), vehicle: saline",5 of 6 and 7 of 7
